# Assay results: the supplement of paper PMC10849652
# By UniProt entry, the sequences of proteins in these tests, tags left out. Where a name states a change or a piece, a line headed by the entry shows the natural chain unless it says otherwise.
# UniProt Q92766: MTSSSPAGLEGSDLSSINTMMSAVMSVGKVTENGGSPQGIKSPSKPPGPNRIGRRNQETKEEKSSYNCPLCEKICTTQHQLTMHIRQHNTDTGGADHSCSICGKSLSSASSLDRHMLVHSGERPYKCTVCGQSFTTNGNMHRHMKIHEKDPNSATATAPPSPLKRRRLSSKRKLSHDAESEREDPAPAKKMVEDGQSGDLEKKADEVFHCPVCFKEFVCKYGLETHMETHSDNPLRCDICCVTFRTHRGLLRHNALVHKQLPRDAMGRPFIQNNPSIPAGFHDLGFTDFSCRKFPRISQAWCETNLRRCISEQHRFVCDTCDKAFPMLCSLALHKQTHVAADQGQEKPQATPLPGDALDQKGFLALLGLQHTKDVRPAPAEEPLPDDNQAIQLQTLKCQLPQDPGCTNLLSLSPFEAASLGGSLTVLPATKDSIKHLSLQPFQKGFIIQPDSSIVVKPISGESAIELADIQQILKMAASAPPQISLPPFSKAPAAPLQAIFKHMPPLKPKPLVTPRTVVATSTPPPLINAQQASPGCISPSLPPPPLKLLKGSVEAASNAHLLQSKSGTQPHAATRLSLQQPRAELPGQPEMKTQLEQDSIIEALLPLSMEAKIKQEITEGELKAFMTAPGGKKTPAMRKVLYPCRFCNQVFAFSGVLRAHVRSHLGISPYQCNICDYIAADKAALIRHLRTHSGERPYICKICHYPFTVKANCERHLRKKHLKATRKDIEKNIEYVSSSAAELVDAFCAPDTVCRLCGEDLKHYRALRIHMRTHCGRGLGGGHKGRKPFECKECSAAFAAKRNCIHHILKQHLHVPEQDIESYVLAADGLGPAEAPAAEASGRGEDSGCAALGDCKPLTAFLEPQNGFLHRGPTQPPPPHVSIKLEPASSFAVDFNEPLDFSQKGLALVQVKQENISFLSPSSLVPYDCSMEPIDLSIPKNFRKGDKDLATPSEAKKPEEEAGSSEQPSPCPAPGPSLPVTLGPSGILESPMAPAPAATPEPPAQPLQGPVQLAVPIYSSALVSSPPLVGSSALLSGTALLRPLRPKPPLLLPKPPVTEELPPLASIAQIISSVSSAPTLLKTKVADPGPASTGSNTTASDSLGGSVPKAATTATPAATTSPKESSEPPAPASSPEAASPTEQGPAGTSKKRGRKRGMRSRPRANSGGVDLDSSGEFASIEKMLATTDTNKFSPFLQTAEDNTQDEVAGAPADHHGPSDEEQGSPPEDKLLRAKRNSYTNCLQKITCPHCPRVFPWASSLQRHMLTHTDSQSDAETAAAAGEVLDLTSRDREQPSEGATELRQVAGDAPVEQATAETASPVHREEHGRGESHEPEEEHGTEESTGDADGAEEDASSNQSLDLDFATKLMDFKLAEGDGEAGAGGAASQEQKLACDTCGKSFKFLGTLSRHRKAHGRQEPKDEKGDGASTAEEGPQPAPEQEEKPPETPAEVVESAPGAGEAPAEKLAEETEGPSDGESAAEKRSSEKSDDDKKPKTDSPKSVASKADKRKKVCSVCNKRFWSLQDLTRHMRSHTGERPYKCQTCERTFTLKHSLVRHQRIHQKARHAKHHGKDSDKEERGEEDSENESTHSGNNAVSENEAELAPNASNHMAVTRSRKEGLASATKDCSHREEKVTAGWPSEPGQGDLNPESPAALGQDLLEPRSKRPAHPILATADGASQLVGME
# UniProt Q6P087: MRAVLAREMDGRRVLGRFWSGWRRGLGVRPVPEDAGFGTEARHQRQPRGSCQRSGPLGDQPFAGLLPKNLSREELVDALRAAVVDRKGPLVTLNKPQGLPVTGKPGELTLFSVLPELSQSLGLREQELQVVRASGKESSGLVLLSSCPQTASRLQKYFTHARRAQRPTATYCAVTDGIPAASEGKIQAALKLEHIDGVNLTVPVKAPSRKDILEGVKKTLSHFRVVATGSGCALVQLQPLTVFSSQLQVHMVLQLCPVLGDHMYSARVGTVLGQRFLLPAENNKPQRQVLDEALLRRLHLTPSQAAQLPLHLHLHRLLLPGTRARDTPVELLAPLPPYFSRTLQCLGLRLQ
# UniProt P56182: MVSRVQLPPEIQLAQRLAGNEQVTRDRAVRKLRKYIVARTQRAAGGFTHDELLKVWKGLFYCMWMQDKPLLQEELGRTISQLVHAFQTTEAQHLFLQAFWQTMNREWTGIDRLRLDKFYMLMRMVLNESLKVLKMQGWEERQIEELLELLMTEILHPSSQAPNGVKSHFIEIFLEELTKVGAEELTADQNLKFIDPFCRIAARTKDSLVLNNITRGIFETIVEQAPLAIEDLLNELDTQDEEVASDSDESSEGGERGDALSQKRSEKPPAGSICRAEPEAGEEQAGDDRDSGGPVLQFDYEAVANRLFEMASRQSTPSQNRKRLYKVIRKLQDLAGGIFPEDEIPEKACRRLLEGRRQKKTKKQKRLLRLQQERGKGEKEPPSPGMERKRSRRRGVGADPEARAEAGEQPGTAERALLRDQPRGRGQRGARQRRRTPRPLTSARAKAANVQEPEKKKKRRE
# UniProt Q9H7B2: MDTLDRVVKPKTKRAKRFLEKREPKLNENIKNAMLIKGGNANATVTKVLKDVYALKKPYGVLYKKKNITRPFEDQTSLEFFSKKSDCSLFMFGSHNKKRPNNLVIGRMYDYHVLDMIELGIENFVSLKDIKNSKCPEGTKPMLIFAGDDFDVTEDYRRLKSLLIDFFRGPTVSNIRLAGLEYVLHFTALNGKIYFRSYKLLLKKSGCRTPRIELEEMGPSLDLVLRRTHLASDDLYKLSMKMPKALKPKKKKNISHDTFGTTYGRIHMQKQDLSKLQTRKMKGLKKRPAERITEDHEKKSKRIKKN
# UniProt P08922: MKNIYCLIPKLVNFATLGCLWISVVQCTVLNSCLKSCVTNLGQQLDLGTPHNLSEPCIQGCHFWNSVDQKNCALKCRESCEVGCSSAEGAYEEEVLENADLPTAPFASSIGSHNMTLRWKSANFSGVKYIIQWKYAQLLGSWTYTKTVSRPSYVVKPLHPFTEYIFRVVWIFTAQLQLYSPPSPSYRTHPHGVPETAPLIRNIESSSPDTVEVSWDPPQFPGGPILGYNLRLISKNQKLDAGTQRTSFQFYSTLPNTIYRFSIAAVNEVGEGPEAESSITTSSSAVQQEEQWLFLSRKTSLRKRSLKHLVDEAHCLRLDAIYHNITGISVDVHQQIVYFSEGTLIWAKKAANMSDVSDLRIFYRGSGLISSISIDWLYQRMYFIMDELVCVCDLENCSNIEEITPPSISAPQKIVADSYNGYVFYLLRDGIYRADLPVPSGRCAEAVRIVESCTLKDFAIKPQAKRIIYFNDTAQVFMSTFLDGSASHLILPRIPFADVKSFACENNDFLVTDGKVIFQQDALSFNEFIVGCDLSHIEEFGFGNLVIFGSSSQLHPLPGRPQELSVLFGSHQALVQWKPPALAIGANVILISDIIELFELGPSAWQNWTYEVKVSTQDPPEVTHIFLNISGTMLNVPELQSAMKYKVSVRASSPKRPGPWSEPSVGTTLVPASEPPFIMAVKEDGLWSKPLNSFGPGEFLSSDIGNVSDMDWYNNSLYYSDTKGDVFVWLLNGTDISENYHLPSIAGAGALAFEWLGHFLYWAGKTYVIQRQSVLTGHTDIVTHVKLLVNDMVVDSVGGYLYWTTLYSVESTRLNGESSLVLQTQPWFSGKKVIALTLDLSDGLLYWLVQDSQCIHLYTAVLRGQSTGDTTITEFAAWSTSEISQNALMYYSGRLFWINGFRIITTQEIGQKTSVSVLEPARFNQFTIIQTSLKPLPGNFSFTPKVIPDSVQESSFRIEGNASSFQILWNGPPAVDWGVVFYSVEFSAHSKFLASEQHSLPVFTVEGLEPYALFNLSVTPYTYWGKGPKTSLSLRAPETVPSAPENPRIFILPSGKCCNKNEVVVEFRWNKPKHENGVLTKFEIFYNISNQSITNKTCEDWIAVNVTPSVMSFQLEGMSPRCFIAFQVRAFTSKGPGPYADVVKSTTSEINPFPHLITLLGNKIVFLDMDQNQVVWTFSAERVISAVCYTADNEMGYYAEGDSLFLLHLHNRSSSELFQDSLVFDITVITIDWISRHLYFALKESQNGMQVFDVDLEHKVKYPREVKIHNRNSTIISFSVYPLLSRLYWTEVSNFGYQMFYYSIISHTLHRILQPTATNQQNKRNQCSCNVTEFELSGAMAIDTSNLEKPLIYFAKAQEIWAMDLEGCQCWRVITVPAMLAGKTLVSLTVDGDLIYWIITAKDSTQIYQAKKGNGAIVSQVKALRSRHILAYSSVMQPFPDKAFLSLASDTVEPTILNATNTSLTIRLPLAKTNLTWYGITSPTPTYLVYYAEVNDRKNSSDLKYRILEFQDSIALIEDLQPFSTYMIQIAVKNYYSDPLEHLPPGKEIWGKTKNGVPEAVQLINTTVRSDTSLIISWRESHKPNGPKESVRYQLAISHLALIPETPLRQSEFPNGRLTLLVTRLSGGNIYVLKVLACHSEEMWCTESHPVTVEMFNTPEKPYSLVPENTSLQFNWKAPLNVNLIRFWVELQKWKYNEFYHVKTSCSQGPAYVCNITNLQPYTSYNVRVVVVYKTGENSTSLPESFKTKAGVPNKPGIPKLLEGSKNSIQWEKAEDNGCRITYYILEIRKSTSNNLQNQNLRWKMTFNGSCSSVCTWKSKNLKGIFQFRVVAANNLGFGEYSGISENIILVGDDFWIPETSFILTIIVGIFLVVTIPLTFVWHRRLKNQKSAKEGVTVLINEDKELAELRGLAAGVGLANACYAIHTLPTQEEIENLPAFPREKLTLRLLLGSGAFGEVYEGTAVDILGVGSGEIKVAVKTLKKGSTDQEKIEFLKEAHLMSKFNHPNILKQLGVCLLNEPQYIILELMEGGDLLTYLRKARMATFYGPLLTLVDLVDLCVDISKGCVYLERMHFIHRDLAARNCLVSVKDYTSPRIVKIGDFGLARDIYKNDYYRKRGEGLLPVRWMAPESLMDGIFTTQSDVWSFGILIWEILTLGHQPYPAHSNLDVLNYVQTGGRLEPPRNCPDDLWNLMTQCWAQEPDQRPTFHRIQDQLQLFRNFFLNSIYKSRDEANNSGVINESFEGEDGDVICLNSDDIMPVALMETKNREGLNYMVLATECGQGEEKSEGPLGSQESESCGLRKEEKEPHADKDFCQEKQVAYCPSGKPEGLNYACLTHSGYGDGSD
# UniProt O95059: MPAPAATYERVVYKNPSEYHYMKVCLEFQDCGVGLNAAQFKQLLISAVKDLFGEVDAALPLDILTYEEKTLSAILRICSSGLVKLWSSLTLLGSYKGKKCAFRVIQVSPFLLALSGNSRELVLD
# UniProt Q9NQG5: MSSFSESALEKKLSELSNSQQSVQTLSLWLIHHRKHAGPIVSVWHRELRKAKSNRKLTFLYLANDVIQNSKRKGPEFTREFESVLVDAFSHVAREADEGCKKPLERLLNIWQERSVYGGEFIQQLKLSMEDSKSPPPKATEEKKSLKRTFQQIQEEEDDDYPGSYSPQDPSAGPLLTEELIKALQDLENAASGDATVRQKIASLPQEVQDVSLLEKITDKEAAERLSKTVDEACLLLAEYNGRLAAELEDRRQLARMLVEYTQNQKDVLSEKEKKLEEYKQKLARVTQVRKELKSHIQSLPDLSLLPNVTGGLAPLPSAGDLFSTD
# UniProt Q15287: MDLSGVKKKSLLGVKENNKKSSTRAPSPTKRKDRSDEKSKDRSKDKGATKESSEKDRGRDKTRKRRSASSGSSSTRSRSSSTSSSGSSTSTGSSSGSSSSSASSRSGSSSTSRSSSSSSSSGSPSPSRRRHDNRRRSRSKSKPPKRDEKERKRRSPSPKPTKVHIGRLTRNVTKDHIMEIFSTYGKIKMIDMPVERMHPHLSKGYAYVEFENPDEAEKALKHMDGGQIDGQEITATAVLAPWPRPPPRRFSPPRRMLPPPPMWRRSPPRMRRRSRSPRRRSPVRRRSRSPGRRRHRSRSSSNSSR
# UniProt P60602: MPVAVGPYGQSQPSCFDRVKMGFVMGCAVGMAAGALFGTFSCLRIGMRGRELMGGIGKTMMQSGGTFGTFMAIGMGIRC
# UniProt Q8IXW5, whole entry, looked up: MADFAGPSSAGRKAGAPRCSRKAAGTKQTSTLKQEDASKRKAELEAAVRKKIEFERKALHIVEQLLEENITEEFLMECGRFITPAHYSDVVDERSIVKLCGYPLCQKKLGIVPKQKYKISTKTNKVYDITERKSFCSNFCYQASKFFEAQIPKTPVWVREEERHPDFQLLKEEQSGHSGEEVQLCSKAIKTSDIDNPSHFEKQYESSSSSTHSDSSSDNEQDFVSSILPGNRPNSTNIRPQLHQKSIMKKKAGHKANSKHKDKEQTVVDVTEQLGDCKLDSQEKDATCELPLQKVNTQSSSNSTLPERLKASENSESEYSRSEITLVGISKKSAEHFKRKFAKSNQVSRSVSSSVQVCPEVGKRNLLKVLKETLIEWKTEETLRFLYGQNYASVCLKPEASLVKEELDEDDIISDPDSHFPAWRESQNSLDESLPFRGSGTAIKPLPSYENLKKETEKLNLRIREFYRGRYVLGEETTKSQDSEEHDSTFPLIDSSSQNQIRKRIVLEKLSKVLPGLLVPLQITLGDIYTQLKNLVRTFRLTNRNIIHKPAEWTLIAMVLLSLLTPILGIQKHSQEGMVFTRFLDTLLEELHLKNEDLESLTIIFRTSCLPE
# The list shows a part of the results.
# Tests used:
# Assay in all cases: log2 fold change, soluble protein after heating vs DMSO (PISA); higher = thermal stabilisation; K562 cells, 10 uM, 30 min; active = over 0.2 and 3.5 SD of the protein, either way, in both replicates (recomputed)
# [1] = compound: CC[C@@H]1C(=O)N(C)c2cnc(Nc3ccc(C(=O)NC4CCN(C)CC4)cc3OC)nc2N1C1CCCC1
# Procedure, shortened: (§1)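 K562 cells at 2×10^6 cells/mL were exposed to 10 μM compound for 30 min, then aliquots were heated for 3 min across 48°C-58°C, pooled, and extracted in PBS containing 0.5% NP-40 at 4°C. The supernatant after 21,000xg for 90 min was taken as soluble protein and measured by TMTpro 16plex LC-MS/MS with channel sums equalised. Thermal stability is reported relative to control samples, with values from duplicates. Fold changes are given on a log2 scale.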
# epoxomicin = compound: CC[C@H](C)[C@@H](C(=O)N[C@@H]([C@@H](C)O)C(=O)N[C@@H](CC(C)C)C(=O)[C@]1(CO1)C)NC(=O)[C@H]([C@@H](C)CC)N(C)C(=O)C [epoxomicin]
# Procedure, shortened: as §1
# [2] = compound: CCn1c(C(=O)N(C2CC2)C2CC2)cc2c3c(ncn3C)c(Nc3cc(C)n(C)n3)nc21
# Procedure, shortened: as §1
# sotrastaurin = compound: CN1CCN(c2nc(C3=C(c4c[nH]c5ccccc45)C(=O)NC3=O)c3ccccc3n2)CC1 [sotrastaurin]
# Procedure, shortened: as §1
# [3] = compound: CNC(=O)C1=CC=CC=C1NC2=NC(=NC=C2Cl)NC3=C(C=C(C=C3)N4CCOCC4)OC
# Procedure, shortened: as §1
# rucaparib = compound: CNCc1ccc(-c2[nH]c3cc(F)cc4c3c2CCNC4=O)cc1 [rucaparib]
# Procedure, shortened: as §1
# encorafenib = compound: COC(=O)N[C@@H](C)CNc1nccc(-c2cn(C(C)C)nc2-c2cc(Cl)cc(NS(C)(=O)=O)c2F)n1 [encorafenib]
# Procedure, shortened: as §1
# volasertib = compound: CC[C@@H]1C(=O)N(C)c2cnc(Nc3ccc(C(=O)N[C@H]4CC[C@H](N5CCN(CC6CC6)CC5)CC4)cc3OC)nc2N1C(C)C [volasertib]
# Procedure, shortened: as §1
# [4] = compound: CCn1cc(-c2ccnc3[nH]c(-c4cccc(CN(C)C)c4)cc23)c(-c2ccc(NC(=O)N(C)C)cc2)n1
# Procedure, shortened: as §1
# [5] = compound: CN(C)CC(=O)Nc1ccc2[nH]c(=O)c3ccccc3c2c1
# Procedure, shortened: as §1
# rosiglitazone = compound: CN(CCOC1=CC=C(C=C1)C[C@H]2C(=O)NC(=O)S2)C3=CC=CC=N3 (racemic) [rosiglitazone]
# Procedure, shortened: as §1
# [6] = compound: CN1C2=C(C3=C1C(=O)N(N=C3)CC4=CC(=CC=C4)N)SC(=C2)S(=O)C
# Procedure, shortened: as §1
# [7] = compound: CN1CCC(CNc2ccc3ncc(-c4cccc(OC(F)(F)F)c4)n3n2)CC1
# Procedure, shortened: as §1
# saracatinib = compound: CN1CCN(CCOc2cc(OC3CCOCC3)c3c(Nc4c(Cl)ccc5c4OCO5)ncnc3c2)CC1 [saracatinib]
# Procedure, shortened: as §1
# alvocidib = compound: CN1CC[C@H](c2c(O)cc(O)c3c(=O)cc(-c4ccccc4Cl)oc23)[C@H](O)C1 [alvocidib]
# Procedure, shortened: as §1
# Tubastatin A = compound: CN1CCc2c(c3ccccc3n2Cc2ccc(C(=O)NO)cc2)C1 [Tubastatin A]
# Procedure, shortened: as §1
# defactinib = compound: CNC(=O)c1ccc(Nc2ncc(C(F)(F)F)c(NCc3nccnc3N(C)S(C)(=O)=O)n2)cc1 [defactinib]
# Procedure, shortened: as §1
# [8] = compound: CNc1nc(-c2ccc3c(N)n[nH]c3c2)cc(N2C[C@@H](C(=O)NC3CCCCC3)CC[C@H]2C)n1
# Procedure, shortened: as §1
# [9] = compound: COC(=O)[C@H](CCSC)NC(=O)C1=C(C=C(C=C1)NC[C@H](CS)N)C2=CC=CC=C2
# Procedure, shortened: as §1
# [10] = compound: CC[C@H](C)N1C=C(C2=C(C=C(C=C21)C3=CN=C(C=C3)N4CCNCC4)C(=O)NCC5=C(C=C(NC5=O)C)C)C
# Procedure, shortened: as §1
Target,log2 fold change [1],log2 fold change (epoxomicin),log2 fold change [2],log2 fold change (sotrastaurin),log2 fold change [3],log2 fold change (rucaparib),log2 fold change (encorafenib),log2 fold change (volasertib),log2 fold change [4],log2 fold change [5],log2 fold change (rosiglitazone),log2 fold change [6],log2 fold change [7],log2 fold change (saracatinib),log2 fold change (alvocidib),log2 fold change (Tubastatin A),log2 fold change (defactinib),log2 fold change [8],log2 fold change [9],log2 fold change [10]
RPL22L1 (UniProt Q6P5R6),inactive: 0.032,inactive: 0.066,inactive: -0.023,inactive: -0.016,inactive: 0.044,inactive: 0.084,inactive: -0.406,–,–,–,–,–,–,–,–,–,–,–,–,–
RREB1 isoform 2 (UniProt Q92766),inactive: 0.051,inactive: 0.046,inactive: 0.037,inactive: -0.097,inactive: -0.049,inactive: 0.284,inactive: 0.188,inactive: -0.077,inactive: 0.057,inactive: -0.176,inactive: -0.092,inactive: 0.095,inactive: 0.073,inactive: -0.092,inactive: 0.039,inactive: -0.17,inactive: 0.065,inactive: 0.041,inactive: 0.235,–
RPUSD3 (UniProt Q6P087),–,–,–,–,–,–,–,inactive: -0.021,inactive: 0.113,–,–,–,inactive: -0.241,–,–,–,–,–,–,inactive: -0.004
RRP1 (UniProt P56182),–,–,inactive: -0.044,–,inactive: -0.085,–,–,–,inactive: -0.277,inactive: -0.111,–,–,inactive: 0.218,–,–,–,inactive: 0.053,–,inactive: -0.038,–
RPF2 (UniProt Q9H7B2),–,–,inactive: -0.314,–,inactive: -0.167,–,–,–,inactive: -0.195,–,–,–,inactive: 0.104,–,–,–,–,–,–,–
ROS1 (UniProt P08922),inactive: 0.152,–,inactive: -0.172,inactive: 0.13,inactive: -0.154,inactive: -0.208,inactive: 0.018,inactive: 0.127,inactive: 0.134,–,inactive: 0.384,–,inactive: -0.207,–,inactive: 0.048,–,–,–,–,inactive: -0.234
RPL37 (UniProt P61927),inactive: 0.154,–,inactive: 0.067,inactive: -0.012,inactive: 0.003,inactive: 0.235,inactive: 0.141,inactive: 0.36,inactive: 0.23,inactive: -0.128,inactive: -0.209,inactive: 0.354,inactive: 0.253,inactive: 0.001,inactive: 0.309,inactive: 0.116,inactive: 0.424,inactive: 0.186,inactive: 0.045,inactive: -0.036
RNFT1 (UniProt Q5M7Z0),–,inactive: -0.023,inactive: 0.109,–,inactive: -0.039,–,–,inactive: 0.108,inactive: 0.075,–,–,–,inactive: 0.068,–,–,–,–,–,–,inactive: -0.048
RPS3A (UniProt D6R9B6),–,–,–,inactive: 0.202,–,–,–,–,–,–,–,inactive: 0.247,–,inactive: -0.125,–,inactive: 0.051,–,inactive: -0.086,–,–
RPS6KB2 (UniProt Q9UBS0),–,inactive: -0.02,inactive: -0.436,–,inactive: 0.165,–,–,–,–,–,–,–,–,–,inactive: -0.223,inactive: -0.199,–,–,–,–
RNF26 (UniProt Q9BY78),–,–,–,–,–,–,–,–,inactive: 0.077,inactive: 0.017,–,–,active: -1.04,–,–,–,inactive: 0.119,–,inactive: 0.292,–
RPP14 (UniProt O95059),inactive: 0.079,inactive: -0.06,–,inactive: -0.01,inactive: -0.039,inactive: 0.004,inactive: 0.046,inactive: 0.07,inactive: 0.08,inactive: -0.04,–,inactive: -0.076,active: 0.244,inactive: 0.064,–,inactive: 0.059,inactive: 0.012,inactive: -0.029,inactive: -0.034,inactive: -0.048
RPP30 (UniProt Q5VU11),–,–,inactive: 0.153,–,inactive: -0.241,–,–,–,inactive: 0.225,–,inactive: 0.016,inactive: 0.041,inactive: -0.207,inactive: -0.308,–,–,–,inactive: 0.016,–,inactive: -0.139
RPRD1B (UniProt Q9NQG5),inactive: -0.057,inactive: 0.075,–,inactive: -0.126,inactive: 0.055,inactive: -0.116,inactive: 0.04,active: -0.245,inactive: -0.005,inactive: 0,–,inactive: -0.059,inactive: -0.077,inactive: -0.014,–,inactive: -0.039,inactive: -0.09,inactive: -0.011,inactive: -0.004,inactive: 0.077
RPL7L1 (UniProt Q6DKI1),inactive: 0.223,inactive: -0.129,–,–,–,inactive: 0.403,inactive: 0.135,–,inactive: -0.32,inactive: -0.103,inactive: -0.167,inactive: 0.214,inactive: 0.276,inactive: 0.028,–,–,inactive: 0.242,inactive: 0.031,inactive: -0.087,inactive: -0.103
RNPS1 (UniProt Q15287),inactive: 0.062,inactive: -0.126,–,inactive: 0.013,inactive: -0.243,inactive: 0.023,inactive: -0.033,inactive: -0.155,inactive: -0.008,inactive: 0.031,–,inactive: 0.016,inactive: 0.006,inactive: 0.036,–,inactive: 0.107,inactive: -0.067,inactive: -0.026,inactive: -0.019,inactive: 0.049
RPS25 (UniProt P62851),inactive: 0.063,inactive: -0.172,–,inactive: 0.007,inactive: 0.095,inactive: 0.124,inactive: 0.01,inactive: 0.338,inactive: 0.134,inactive: -0.03,–,inactive: 0.122,inactive: 0.146,inactive: -0.052,–,inactive: 0.094,inactive: 0.184,inactive: 0.076,inactive: 0.024,inactive: 0.012
ROMO1 (UniProt P60602),inactive: 0.033,inactive: -0.178,–,inactive: -0.091,inactive: 0.013,inactive: -0.038,inactive: 0.026,inactive: 0.01,inactive: -0.023,–,–,inactive: 0.125,inactive: 0.049,inactive: 0.022,–,inactive: 0.048,–,inactive: -0.012,–,inactive: -0.06
RPAP2 (UniProt Q8IXW5),–,inactive: -0.068,inactive: 0.051,inactive: 0.017,inactive: -0.025,–,–,–,inactive: 0.01,–,–,–,inactive: -0.029,–,inactive: -0.396,inactive: 0.024,–,–,–,–
